# Reference: the supplement of paper PMC8728848
# The other results are listed elsewhere or left out.
# Legend:
# Assay in all cases: glycan array binding signal (z-score within array); higher = stronger binding
# Conditions in all cases: glycan notation: IUPAC condensed, linker removed
# [1] = target: GlcNAc(b1-2)[GlcNAc(b1-4)]Man(a1-3)[GlcNAc(b1-4)][GlcNAc(b1-2)[GlcNAc(b1-6)]Man(a1-6)]Man(b1-4)GlcNAc(b1-4)GlcNAc
# Outline: (§1)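 The binding signal is a Z-score computed within each array. Data were drawn from 3228 arrays in the Consortium for Functional Glycomics database, restricted to those with a known protein sequence. Scores were averaged over arrays of the same protein sequence at different concentrations or buffers, and over linkers, and negative values can be taken as non-binding.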
# [2] = target: GlcNAc(b1-2)[GlcNAc(b1-4)]Man(a1-3)[GlcNAc(b1-4)][GlcNAc(b1-2)[GlcNAc(b1-6)]Man(a1-6)]Man(b1-4)GlcNAc(b1-4)[Fuc(a1-6)]GlcNAc
# Outline: as §1
# [3] = target: GlcNAc(b1-2)[GlcNAc(b1-6)]Man(a1-6)[GlcNAc(b1-2)Man(a1-3)]Man(b1-4)GlcNAc(b1-4)GlcNAc
# Outline: as §1
# [4] = target: GlcNAc(b1-2)[GlcNAc(b1-6)]Man(a1-6)[GlcNAc(b1-2)Man(a1-3)]Man(b1-4)GlcNAc(b1-4)[Fuc(a1-6)]GlcNAc
# Outline: as §1
# [5] = target: GlcNAc(b1-2)[GlcNAc(b1-6)]Man(a1-6)[GlcNAc(b1-4)][GlcNAc(b1-2)Man(a1-3)]Man(b1-4)GlcNAc(b1-4)GlcNAc
# Outline: as §1
# GlcNAc(b1-3)Fuc = target: GlcNAc(b1-3)Fuc
# Outline: as §1
# GlcNAc(b1-3)Gal = target: GlcNAc(b1-3)Gal
# Outline: as §1
# [6] = target: GlcNAc(b1-3)Gal(b1-3)GalNAc
# Outline: as §1
# GlcNAc(b1-3)Gal(b1-4)Glc = target: GlcNAc(b1-3)Gal(b1-4)Glc
# Outline: as §1
# [7] = target: GlcNAc(b1-3)Gal(b1-4)GlcNAc
# Outline: as §1
# [8] = target: GlcNAc(b1-3)Gal(b1-4)GlcNAc(b1-2)Man(a1-3)[GlcNAc(b1-3)Gal(b1-4)GlcNAc(b1-2)Man(a1-6)]Man(b1-4)GlcNAc(b1-4)GlcNAc
# Outline: as §1
# [9] = target: GlcNAc(b1-3)Gal(b1-4)GlcNAc(b1-2)Man(a1-3)[GlcNAc(b1-3)Gal(b1-4)GlcNAc(b1-2)Man(a1-6)]Man(b1-4)GlcNAc(b1-4)[Fuc(a1-6)]GlcNAc
# Outline: as §1
# [10] = target: GlcNAc(b1-3)Gal(b1-4)GlcNAc(b1-2)[GlcNAc(b1-3)Gal(b1-4)GlcNAc(b1-6)]Man(a1-6)[GlcNAc(b1-3)Gal(b1-4)GlcNAc(b1-2)Man(a1-3)]Man(b1-4)GlcNAc(b1-4)GlcNAc
# Outline: as §1
# [11] = target: GlcNAc(b1-3)Gal(b1-4)GlcNAc(b1-3)Gal(b1-4)GlcNAc
# Outline: as §1
# [12] = target: GlcNAc(b1-3)Gal(b1-4)GlcNAc(b1-3)Gal(b1-4)GlcNAc(b1-2)Man(a1-3)[GlcNAc(b1-3)Gal(b1-4)GlcNAc(b1-3)Gal(b1-4)GlcNAc(b1-2)Man(a1-6)]Man(b1-4)GlcNAc(b1-4)GlcNAc
# Outline: as §1
# [13] = target: GlcNAc(b1-3)Gal(b1-4)GlcNAc(b1-3)Gal(b1-4)GlcNAc(b1-2)Man(a1-3)[GlcNAc(b1-3)Gal(b1-4)GlcNAc(b1-3)Gal(b1-4)GlcNAc(b1-2)Man(a1-6)]Man(b1-4)GlcNAc(b1-4)[Fuc(a1-6)]GlcNAc
# Outline: as §1
# [14] = target: GlcNAc(b1-3)Gal(b1-4)GlcNAc(b1-3)Gal(b1-4)GlcNAc(b1-2)[GlcNAc(b1-3)Gal(b1-4)GlcNAc(b1-3)Gal(b1-4)GlcNAc(b1-6)]Man(a1-6)[GlcNAc(b1-3)Gal(b1-4)GlcNAc(b1-3)Gal(b1-4)GlcNAc(b1-2)Man(a1-3)]Man(b1-4)GlcNAc(b1-4)[Fuc(a1-6)]GlcNAc
# Outline: as §1
# [15] = target: GlcNAc(b1-3)Gal(b1-4)GlcNAc(b1-3)Gal(b1-4)GlcNAc(b1-3)Gal(b1-4)GlcNAc(b1-2)Man(a1-3)[GlcNAc(b1-3)Gal(b1-4)GlcNAc(b1-3)Gal(b1-4)GlcNAc(b1-3)Gal(b1-4)GlcNAc(b1-2)Man(a1-6)]Man(b1-4)GlcNAc(b1-4)GlcNAc
# Outline: as §1
# [16] = target: GlcNAc(b1-3)Gal(b1-4)GlcNAc(b1-3)Gal(b1-4)GlcNAc(b1-3)Gal(b1-4)GlcNAc(b1-2)Man(a1-3)[GlcNAc(b1-3)Gal(b1-4)GlcNAc(b1-3)Gal(b1-4)GlcNAc(b1-3)Gal(b1-4)GlcNAc(b1-2)Man(a1-6)]Man(b1-4)GlcNAc(b1-4)[Fuc(a1-6)]GlcNAc
# Outline: as §1
# [17] = target: GlcNAc(b1-3)Gal(b1-4)GlcNAc(b1-3)Gal(b1-4)GlcNAc(b1-3)Gal(b1-4)GlcNAc(b1-2)[GlcNAc(b1-3)Gal(b1-4)GlcNAc(b1-3)Gal(b1-4)GlcNAc(b1-3)Gal(b1-4)GlcNAc(b1-6)]Man(a1-6)[GlcNAc(b1-3)Gal(b1-4)GlcNAc(b1-3)Gal(b1-4)GlcNAc(b1-3)Gal(b1-4)GlcNAc(b1-2)Man(a1-3)]Man(b1-4)GlcNAc(b1-4)[Fuc(a1-6)]GlcNAc
# Outline: as §1
# [18] = target: GlcNAc(b1-3)Gal(b1-4)GlcNAc(b1-3)Gal(b1-4)GlcNAc(b1-3)Gal(b1-4)GlcNAc(b1-3)Gal(b1-4)GlcNAc(b1-2)Man(a1-3)[GlcNAc(b1-3)Gal(b1-4)GlcNAc(b1-3)Gal(b1-4)GlcNAc(b1-3)Gal(b1-4)GlcNAc(b1-3)Gal(b1-4)GlcNAc(b1-2)Man(a1-6)]Man(b1-4)GlcNAc(b1-4)GlcNAc
# Outline: as §1
# [19] = target: GlcNAc(b1-3)Gal(b1-4)GlcNAc(b1-3)Gal(b1-4)GlcNAc(b1-3)Gal(b1-4)GlcNAc(b1-3)Gal(b1-4)GlcNAc(b1-2)Man(a1-3)[GlcNAc(b1-3)Gal(b1-4)GlcNAc(b1-3)Gal(b1-4)GlcNAc(b1-3)Gal(b1-4)GlcNAc(b1-3)Gal(b1-4)GlcNAc(b1-2)Man(a1-6)]Man(b1-4)GlcNAc(b1-4)[Fuc(a1-6)]GlcNAc
# Outline: as §1
# [20] = target: GlcNAc(b1-3)Gal(b1-4)GlcNAc(b1-3)Gal(b1-4)GlcNAc(b1-3)Gal(b1-4)GlcNAc(b1-3)Gal(b1-4)GlcNAc(b1-2)[GlcNAc(b1-3)Gal(b1-4)GlcNAc(b1-3)Gal(b1-4)GlcNAc(b1-3)Gal(b1-4)GlcNAc(b1-3)Gal(b1-4)GlcNAc(b1-6)]Man(a1-6)[GlcNAc(b1-3)Gal(b1-4)GlcNAc(b1-3)Gal(b1-4)GlcNAc(b1-3)Gal(b1-4)GlcNAc(b1-3)Gal(b1-4)GlcNAc(b1-2)Man(a1-3)]Man(b1-4)GlcNAc(b1-4)[Fuc(a1-6)]GlcNAc
# Outline: as §1
# [21] = target: GlcNAc(b1-3)Gal(b1-4)GlcNAc(b1-3)Gal(b1-4)GlcNAc(b1-3)GalNAc
# Outline: as §1
# [22] = target: GlcNAc(b1-3)Gal(b1-4)GlcNAc(b1-3)GalNAc
# Outline: as §1
# [23] = target: GlcNAc(b1-3)Gal(b1-4)GlcNAc(b1-3)[GlcNAc(b1-3)Gal(b1-4)GlcNAc(b1-3)]GalNAc
# Outline: as §1
# [24] = target: GlcNAc(b1-3)Gal(b1-4)GlcNAc(b1-6)[Gal(b1-3)]GalNAc
# Outline: as §1
# [25] = target: GlcNAc(b1-3)Gal(b1-4)GlcNAc(b1-6)[GlcNAc(b1-3)Gal(b1-3)]GalNAc
# Outline: as §1
# [26] = target: GlcNAc(b1-3)Gal(b1-4)GlcNAc(b1-6)[GlcNAc(b1-3)]Gal(b1-4)GlcNAc
# Outline: as §1
# GlcNAc(b1-3)GalNAc = target: GlcNAc(b1-3)GalNAc
# Outline: as §1
# GlcNAc(b1-3)Man = target: GlcNAc(b1-3)Man
# Outline: as §1
# [27] = target: GlcNAc(b1-3)[GlcNAc(b1-4)][GlcNAc(b1-6)]GlcNAc
# Outline: as §1
# [28] = target: GlcNAc(b1-3)[GlcNAc(b1-6)]Gal(b1-4)GlcNAc
# Outline: as §1
# [29] = target: GlcNAc(b1-3)[GlcNAc(b1-6)]GalNAc
# Outline: as §1
# [30] = target: GlcNAc(b1-4)Gal(b1-4)GlcNAc
# Outline: as §1
# GlcNAc(b1-4)GlcNAc = target: GlcNAc(b1-4)GlcNAc
# Outline: as §1
# [31] = target: GlcNAc(b1-4)GlcNAc(b1-4)GlcNAc
# Outline: as §1
# [32] = target: GlcNAc(b1-4)GlcNAc(b1-4)GlcNAc(b1-4)GlcNAc(b1-4)GlcNAc
# Outline: as §1
binder,measurement,setting,value
RobpsCRA (Robinia pseudoacacia) (protein) IKGGYWYSGSGLAVSDINPSHFTHLFCAFADLDPNTNKLTISSSNAAAFSTFTQTVRAKNPSVKTLLSIGGGGGRALAAVFANMASQASRRKSFIDSSIQLARRNNFHGLDLDWEYPSSDIDKTNFASLIREWRAAVATESSTSGTPALLLSAAVGGSDQITPLKYYPGEAIANNLDWVNVMTYDLYTSDSYPTLTQPPAPLFYPRGIFSADEGITKWIQSGVPESKLALGLPFYGFKWRLSDPNNHGLFAPATQGLGAVKYKDIVNTGGQVEFDSTYVTNYCFKGTDWYGYDDTQSISAKVAYAKQRGLFGYFAWHIEQDSNWALS,glycan array binding signal (z-score),[1],-0.105
same,glycan array binding signal (z-score),[2],0.837
same,glycan array binding signal (z-score),[3],0.227
same,glycan array binding signal (z-score),[4],-0.106
same,glycan array binding signal (z-score),[5],-0.019
same,glycan array binding signal (z-score),GlcNAc(b1-3)Fuc,-0.426
same,glycan array binding signal (z-score),GlcNAc(b1-3)Gal,0.331
same,glycan array binding signal (z-score),[6],0.17
same,glycan array binding signal (z-score),GlcNAc(b1-3)Gal(b1-4)Glc,-0.681
same,glycan array binding signal (z-score),[7],0.602
same,glycan array binding signal (z-score),[8],-0.142
same,glycan array binding signal (z-score),[9],0.229
same,glycan array binding signal (z-score),[10],1.5
same,glycan array binding signal (z-score),[11],0.172
same,glycan array binding signal (z-score),[12],0.567
same,glycan array binding signal (z-score),[13],0.104
same,glycan array binding signal (z-score),[14],1.11
same,glycan array binding signal (z-score),[15],0.549
same,glycan array binding signal (z-score),[16],0.895
same,glycan array binding signal (z-score),[17],0.346
same,glycan array binding signal (z-score),[18],-0.064
same,glycan array binding signal (z-score),[19],-0.454
same,glycan array binding signal (z-score),[20],1.28
same,glycan array binding signal (z-score),[21],-0.291
same,glycan array binding signal (z-score),[22],-0.874
same,glycan array binding signal (z-score),[23],0.089
same,glycan array binding signal (z-score),[24],0.859
same,glycan array binding signal (z-score),[25],0.16
same,glycan array binding signal (z-score),[26],-0.361
same,glycan array binding signal (z-score),GlcNAc(b1-3)GalNAc,-0.205
same,glycan array binding signal (z-score),GlcNAc(b1-3)Man,-0.583
same,glycan array binding signal (z-score),[27],0.848
same,glycan array binding signal (z-score),[28],0.108
same,glycan array binding signal (z-score),[29],-0.507
same,glycan array binding signal (z-score),[30],-0.76
same,glycan array binding signal (z-score),GlcNAc(b1-4)GlcNAc,-0.199
same,glycan array binding signal (z-score),[31],0.264
same,glycan array binding signal (z-score),[32],0.011

# 2 neighbouring entries already listed, quoted:
binder,measurement,setting,value
RobpsCRA (Robinia pseudoacacia) (protein) IKGGYWYSGSGLAVSDINPSHFTHLFCAFADLDPNTNKLTISSSNAAAFSTFTQTVRAKNPSVKTLLSIGGGGGRALAAVFANMASQASRRKSFIDSSIQLARRNNFHGLDLDWEYPSSDIDKTNFASLIREWRAAVATESSTSGTPALLLSAAVGGSDQITPLKYYPGEAIANNLDWVNVMTYDLYTSDSYPTLTQPPAPLFYPRGIFSADEGITKWIQSGVPESKLALGLPFYGFKWRLSDPNNHGLFAPATQGLGAVKYKDIVNTGGQVEFDSTYVTNYCFKGTDWYGYDDTQSISAKVAYAKQRGLFGYFAWHIEQDSNWALS,glycan array binding signal (z-score),[5],-0.019
same,glycan array binding signal (z-score),GlcNAc(b1-3)Fuc,-0.426
